Experimental data from US8193361B2, “I-alkynyl 2-aryloxyalkylamides and their use as fungicides” (Syngenta Limited, priority 2004, dated 2012).
Some entries share one result that the patent states for a list of compounds.

Legend:
Botrytis cinerea = experiment: Leaf disk assay, Botrytis cinerea (grey mould), preventive; format: in vivo; conditions: 200 ppm; bean leaf disks; assessed four days after inoculation
Pythium ultimum = Pythium ultimum (damping off) growth inhibition in potato dextrose broth, 96-well plate; format: cell-based; conditions: 20 ppm; inhibition of growth determined photometrically after 48 hours at 24° C.

SMILES	control of fungal infection (Botrytis cinerea)	control of fungal infection (Pythium ultimum)
CC#CC(C)(C)NC(=O)C(Oc1cccc(Oc2ccccc2)c1)SC (stereo not drawn) [4 (1), 2-(3-phenoxyphenoxy)-2-methylthio-N-(2-methylpent-3-yn-2-yl)acetamide]	at least 60%	
CC#CC(C)(C)NC(=O)C(Oc1ccc2c(c1)OCO2)SC (stereo not drawn) [4 (3), 2-(3,4-methylenedioxy-phenoxy)-2-methylthio-N-(2-methylpent-3-yn-2-yl)acetamide]	at least 60%	at least 60%
